Values are relative to the signal before dosing, not to a vehicle control; the signal also falls without drug.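 Fibroblast labels denote human fibroblasts, mainly primary ones from uterus (C12385, HUF), lung (H6013), bone (Hs27A), adrenal (HADF) and skin (WS1), plus mammary HMF and breast cancer-associated Hs343T. Cancer cells are basal-like or mesenchymal-like triple-negative breast cancer lines. A hit is a response shift exceeding 3x replicate standard deviation. The tissue of the other fibroblasts is not given here.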
System: MDAMB436
Assay: relative JC-1 red fluorescence (viability) vs pre-drug, coculture with fibroblast (fraction); higher = more viable cancer cells
Protocol: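 JC-1 labelled TNBC cells cocultured 1:1 (1,500 cells each) with CellTrace Violet stained primary or stromal fibroblasts in 384-well plates in FluoroBrite medium, treated with one of 42 anticancer drugs at 0.1, 1, 10 or 100 uM. JC-1 red fluorescence (mitochondrial integrity in cancer cells only) was read by plate reader every 8 h for 72 h. Values are normalised to each well's pre-drug value. The stock of one drug was tenfold lower, so its dose labels may be too high.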

O=NN(CCCl)C(=O)NCCCl [Carmustine]
relative JC-1 red fluorescence
Settings	8 h	16 h	24 h	32 h	40 h	48 h	56 h	64 h	72 h
10 µM, coculture fibroblast: C12385	0.826	0.7219	0.659	0.573	0.517	0.484	0.46	0.437	0.428
10 µM, coculture fibroblast: H6013	0.872	0.81	0.791	0.79	0.774	0.773	0.751	0.723	0.678
10 µM, coculture fibroblast: H6019	0.7651	0.653	0.633	0.56	0.513	0.498	0.464	0.432	0.405
10 µM, coculture fibroblast: H6076	0.826	0.721	0.628	0.568	0.532	0.5	0.49	0.476	0.469
10 µM, coculture fibroblast: H6231	0.751	0.643	0.547	0.488	0.444	0.413	0.3881	0.367	0.3464
10 µM, coculture fibroblast: HADF	0.8043	0.696	0.65	0.599	0.552	0.549	0.498	0.478	0.431
10 µM, coculture fibroblast: HCFa	0.782	0.6906	0.639	0.594	0.563	0.56	0.497	0.485	0.435
10 µM, coculture fibroblast: HCPF	0.787	0.702	0.609	0.551	0.509	0.464	0.425	0.407	0.388
10 µM, coculture fibroblast: HHSteC	0.836	0.776	0.729	0.685	0.659	0.664	0.605	0.572	0.516
10 µM, coculture fibroblast: HMF	0.794	0.715	0.59	0.55	0.525	0.505	0.499	0.482	0.481
10 µM, coculture fibroblast: HPFa	0.84484	0.7757	0.709	0.651	0.605	0.605	0.526	0.482	0.398
10 µM, coculture fibroblast: HUF	0.861	0.763	0.719	0.636	0.58	0.545	0.511	0.497	0.482
10 µM, coculture fibroblast: Hs5	0.797	0.741	0.649	0.589	0.561	0.519	0.509	0.465	0.444
10 µM, coculture fibroblast: Hs27A	0.7762	0.6995	0.675	0.643	0.612	0.658	0.567	0.537	0.472
10 µM, coculture fibroblast: Hs343T	0.807	0.717	0.585	0.527	0.479	0.443	0.413	0.399	0.394
10 µM, coculture fibroblast: WS1	0.815	0.728	0.676	0.591	0.544	0.515	0.49	0.456	0.437
100 µM, coculture fibroblast: C12385	0.786	0.754	0.761	0.693	0.6596	0.6415	0.631	0.624	0.621
100 µM, coculture fibroblast: H6013	0.813	0.788	0.793	0.797	0.812	0.851	0.8292	0.8233	0.779
100 µM, coculture fibroblast: H6019	0.768	0.7182	0.7046	0.6352	0.6081	0.5924	0.5658	0.5339	0.5044
100 µM, coculture fibroblast: H6076	0.683	0.61	0.605	0.572	0.562	0.547	0.573	0.5885	0.597
100 µM, coculture fibroblast: H6231	0.646	0.585	0.608	0.539	0.518	0.504	0.498	0.496	0.48
100 µM, coculture fibroblast: HADF	0.81	0.799	0.788	0.766	0.781	0.825	0.777	0.781	0.75
100 µM, coculture fibroblast: HCFa	0.813	0.797	0.782	0.752	0.745	0.767	0.714	0.714	0.672
100 µM, coculture fibroblast: HCPF	0.6446	0.596	0.609	0.558	0.544	0.518	0.527	0.528	0.518
100 µM, coculture fibroblast: HHSteC	0.8264	0.809	0.796	0.7644	0.76198	0.7831	0.7366	0.7248	0.68
100 µM, coculture fibroblast: HMF	0.665	0.577	0.559	0.521	0.503	0.482	0.486	0.4972	0.5013
100 µM, coculture fibroblast: HPFa	0.867	0.86	0.841	0.802	0.807	0.833	0.755	0.727	0.662
100 µM, coculture fibroblast: HUF	0.8082	0.746	0.727	0.657	0.613	0.598	0.587	0.583	0.588
100 µM, coculture fibroblast: Hs5	0.69	0.651	0.655	0.611	0.616	0.587	0.617	0.605	0.597
100 µM, coculture fibroblast: Hs27A	0.7942	0.789	0.787	0.77	0.755	0.838	0.742	0.74	0.674
100 µM, coculture fibroblast: Hs343T	0.683	0.614	0.581	0.537	0.512	0.491	0.497	0.5	0.508
100 µM, coculture fibroblast: WS1	0.769	0.732	0.73	0.6487	0.6222	0.5997	0.5856	0.563	0.549

Reference: the supplement of paper PMC6078165
